Data as given in PubChem BioAssay AID652243 (Drosophila RNAi Screening Center, 2013)
The screen tested about 24,000 reagents; below is an unselected part of those with a known target gene and a result. Over the whole deposit, 246 (1%) got an active call. 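Plates not normalised; calls are printed but the firefly/Renilla ratio behind them is not deposited; fold cut for lowering reported inconsistently.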 Raw values vary from plate to plate and are shown uncorrected. Reagents against one gene are numbered here. Names joined by + are all predicted targets of the reagent. Reagent sequences are not shown. Not given: the amount of reagent.

Aim: 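Fly genes required for human androgen receptor driven transcription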 (primary screen)
Cell system: Drosophila S2R+ cells
Reagents: long dsRNA against Drosophila genes
Timing: 72 h (48 h, then 24 h hormone)
Challenge: synthetic androgen R1881 at 10 nM for 24 h
Detection: 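Per-well raw luminescence of the androgen-driven firefly reporter and of the Renilla control, two replicates each, without normalisation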
Reading the numbers: firefly reporter light: higher = more light from androgen-responsive reporter; Renilla control light: higher = more constitutive control signal (cell number, transfection)
Call rule: 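Hit when the log firefly-to-Renilla ratio dropped or increased by a fixed fold versus the mean of GFP or LacZ controls across duplicate plates; lowering cut given as 1.5 and as 3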
Meaning of the calls: active = hit: reporter lowered or raised; inactive = no hit

Target gene | reagent | firefly reporter light, replicate 1 | firefly reporter light, replicate 2 | Renilla control light, replicate 1 | Renilla control light, replicate 2 | activity call
CG3894 | 1 | 1.78e5 | 2.30e5 | 6.09e5 | 7.67e5 | inactive
CG3894 | 2 | 80929 | 69741 | 1.90e5 | 2.16e5 | inactive
CG3894 | 3 | 6.74e5 | 1.05e6 | 1.30e6 | 2.06e6 | inactive
l(2)k09913 | 1 | 4.26e5 | 3.71e5 | 1.36e6 | 1.20e6 | inactive
CG31220 | 1 | 5.77e5 | 7.17e5 | 2.37e6 | 2.15e6 | inactive
CG31220 | 2 | 5.23e5 | 7.23e5 | 5.53e5 | 6.54e5 | inactive
CG13840 | 1 | 1.05e6 | 9.05e5 | 1.62e6 | 1.41e6 | inactive
CG13840 | 2 | 3.59e5 | 4.26e5 | 9.34e5 | 1.07e6 | inactive
CG12219 | 1 | 3.30e5 | 3.26e5 | 4.06e6 | 3.97e6 | inactive
CG12219 | 2 | 1.06e6 | 1.18e6 | 1.25e6 | 1.52e6 | inactive
rpr | 1 | 2.65e5 | 2.39e5 | 2.15e6 | 2.43e6 | inactive
CG5676 | 1 | 1.87e5 | 2.19e5 | 1.17e6 | 1.74e6 | inactive
ft | 1 | 7.45e5 | 8.00e5 | 1.84e6 | 2.02e6 | inactive
CG7191 | 1 | 2.63e5 | 2.30e5 | 2.15e6 | 1.83e6 | inactive
CG7191 | 2 | 3.63e5 | 4.32e5 | 4.73e5 | 6.71e5 | inactive
Osi2 | 1 | 79438 | 88238 | 1.19e6 | 1.24e6 | inactive
Osi2 | 2 | 2.60e5 | 5.69e5 | 1.01e6 | 1.60e6 | inactive
caly | 1 | 1.05e6 | 6.64e5 | 1.91e6 | 1.25e6 | inactive
CG10934 | 1 | 1.57e6 | 1.24e6 | 2.69e6 | 1.77e6 | inactive
CG17108 | 1 | 2.27e5 | 2.82e5 | 2.46e6 | 2.82e6 | inactive
CG17108 | 2 | 4.35e5 | 4.28e5 | 1.20e6 | 1.04e6 | inactive
CG17108 | 3 | 8.31e5 | 5.93e5 | 1.42e6 | 1.21e6 | inactive
CG2247 | 1 | 1.25e5 | 1.22e5 | 8.51e5 | 7.58e5 | inactive
Nup154 | 1 | 6.94e5 | 7.29e5 | 2.20e6 | 2.62e6 | inactive
Nup154 | 2 | 2.40e5 | 1.95e5 | 6.06e5 | 5.90e5 | inactive
CG14130 | 1 | 1.94e5 | 1.49e5 | 2.43e6 | 2.23e6 | inactive
CG14903 | 1 | 1.92e5 | 1.44e5 | 2.48e6 | 2.54e6 | inactive
CG12716 | 1 | 6.81e5 | 5.06e5 | 3.35e6 | 3.10e6 | inactive
CG12716 | 2 | 1.07e6 | 8.87e5 | 1.64e6 | 1.39e6 | inactive
asRNA:CR42547 + CG15674 | 1 | 2.19e5 | 2.65e5 | 1.42e6 | 1.73e6 | inactive
CG7453 | 1 | 1.19e5 | 93475 | 4.04e5 | 3.24e5 | inactive
CG7453 | 2 | 7.64e5 | 6.85e5 | 1.25e6 | 1.05e6 | inactive
CG2200 | 1 | 3.77e5 | 4.37e5 | 3.53e6 | 4.11e6 | inactive
Mvk + CG33672 + spt4 | 1 | 2.75e5 | 2.44e5 | 3.29e5 | 2.10e5 | inactive
Mvk + CG33672 + spt4 | 2 | 1.22e6 | 1.14e6 | 1.09e6 | 1.67e6 | inactive
Mvk + CG33672 + spt4 | 3 | – | – | – | – | inactive
Nedd4 | 1 | 1.51e5 | 1.81e5 | 1.38e6 | 2.34e6 | inactive
Nedd4 | 2 | 7.97e5 | 5.54e5 | 2.74e6 | 1.92e6 | inactive
Nedd4 | 3 | 4.53e5 | 3.42e5 | 5.47e5 | 5.14e5 | inactive
CG14142 | 1 | 2.05e5 | 1.65e5 | 1.37e6 | 1.23e6 | inactive
CG14142 | 2 | 2.29e5 | 2.56e5 | 5.76e5 | 4.75e5 | inactive
Use1 | 1 | 2.15e5 | 1.32e5 | 3.10e6 | 2.02e6 | inactive
Use1 | 2 | 3.67e5 | 4.03e5 | 5.82e5 | 5.86e5 | inactive
CG13086 | 1 | 1.45e5 | 2.07e5 | 1.91e6 | 2.35e6 | inactive
CG13086 | 2 | 2.29e5 | 2.18e5 | 3.52e5 | 8.17e5 | inactive
Cyp4g15 | 1 | 8.16e5 | 6.58e5 | 3.84e6 | 3.88e6 | inactive
tow | 1 | 7.38e5 | 9.14e5 | 1.14e6 | 1.75e6 | inactive
tow | 2 | 3.40e5 | 3.33e5 | 6.99e5 | 6.16e5 | inactive
snRNA:U2:34ABc | 1 | 1.21e6 | 1.25e6 | 1.64e6 | 2.04e6 | inactive
Nup58 | 1 | 2.49e5 | 1.39e5 | 3.53e6 | 2.59e6 | inactive
Nup58 | 2 | 6.30e5 | 4.02e5 | 2.91e6 | 1.39e6 | inactive
Hmg-2 | 1 | 1.17e6 | 9.02e5 | 1.52e6 | 1.38e6 | inactive
Hmg-2 | 2 | 9.17e5 | 8.45e5 | 1.12e6 | 1.17e6 | inactive
CG8229 | 1 | 1.01e6 | 1.15e6 | 1.45e6 | 1.35e6 | inactive
CG8229 | 2 | 5.29e5 | 3.61e5 | 8.57e5 | 7.13e5 | inactive
slo | 1 | 59113 | 50026 | 4.85e5 | 4.26e5 | inactive
slo | 2 | 8.83e5 | 9.28e5 | 1.38e6 | 1.17e6 | inactive
Edg84A | 1 | 1.08e5 | 1.42e5 | 2.32e6 | 2.47e6 | inactive

Records listed so far whose gene name begins with N or n:
Target gene | reagent | firefly reporter light, replicate 1 | firefly reporter light, replicate 2 | Renilla control light, replicate 1 | Renilla control light, replicate 2 | activity call
Nup154 | 1 | 6.94e5 | 7.29e5 | 2.20e6 | 2.62e6 | inactive
Nup154 | 2 | 2.40e5 | 1.95e5 | 6.06e5 | 5.90e5 | inactive
Nedd4 | 1 | 1.51e5 | 1.81e5 | 1.38e6 | 2.34e6 | inactive
Nedd4 | 2 | 7.97e5 | 5.54e5 | 2.74e6 | 1.92e6 | inactive
Nedd4 | 3 | 4.53e5 | 3.42e5 | 5.47e5 | 5.14e5 | inactive
Nup58 | 1 | 2.49e5 | 1.39e5 | 3.53e6 | 2.59e6 | inactive
Nup58 | 2 | 6.30e5 | 4.02e5 | 2.91e6 | 1.39e6 | inactive
